No constants are given. Whether binding was seen depends on the method and setting. In cells and extracts the contact can be indirect. Some entries that bind do so weakly or less than the wild type.
Experiments:
[1] = biological target: T1, biotinylated Wbp1 (WW domain binding protein 1) oligopeptide …; assay: pull-down
T1 sequence (peptide, biotin (position not stated)): SGSGGTPPPPYTVG

[2] = biological target: T2, biotinylated Dvl2 (Dishevelled segment polarity protein 2) oligopeptide …; assay: pull-down
T2 sequence (peptide, biotin (position not stated)): HPYSPQPPPYHELSSY

binding [1]: binds
binding [2]: binds
B1: Wwox (WW domain-containing oxidoreductase), wildtype, from Wwox^WT/WT mice (protein, UniProt Q91WL8 1-414)
chain: MAALRYAGLDDTDSEDELPPGWEERTTKDGWVYYANHTEEKTQWEHPKTGKRKRVAGDLPYGWEQETDENGQVFFVDHINKRTTYLDPRLAFTVDDNPTKPTTRQRYDGSTTAMEILQGRDFTGKVVLVTGANSGIGFETAKSFALHGAHVILACRNLSRASEAVSRILEEWHKAKVEAMTLDLAVLRSVQHFAEAFKAKNVSLHVLVCNAGTFALPWGLTKDGLETTFQVNHLGHFYLVQLLQDVLCRSSPARVIVVSSESHRFTDINDSSGKLDLSRLSPPRSDYWAMLAYNRSKLCNILFSNELHRRLSPRGVTSNAVHPGNMMYSAIHRNSWVYKLLFTLARPFTKSMQQGAATTVYCAVAPELEGLGGMYFNNCCRCLPSEEAQSEETARALWELSERLIQDRLGSPSS

Source: publication doi:10.1101/2022.10.05.510979
